Test results taken from patent US20250243243A1, “DISRUPTION OF SONIC HEDGEHOG-SURF4 INTERACTION FOR CANCER TREATMENT” (The Hong Kong University of Science and Technology, priority 2022, published 2025).
No constants are given. Whether binding was seen depends on the method and setting. Some entries that bind do so weakly or less than the wild type. Tags and fused reporters may be left off the sequences shown.

Tests used:
[1] = biological target: T1, RRFR peptides (…); experiment: peptide pull-down, peptides on beads, anti-GST blot
T1 sequence (peptide, C-terminal cysteine added for coupling to thiopyridone-Sepharose 6B beads): VRRFRYPERPC

[2] = biological target: T1, RRFR peptides (…); experiment: quantification of the peptide pull-down (n=3), normalised to CW peptides
[3] = biological target: T1, RRFR peptides (…); experiment: pull-down on peptide-coupled beads, purified GST-SURF4(49-60) as prey, anti-GST immunoblot

Measured: binding

SEQRDYIDTTWN (peptide, not shown: a dimerising Fc or GST) [GST-SURF4^49-60]
binds: all assays above
